Assay results from publication PMC9985596.
No constants are given. Whether binding was seen depends on the method and setting. Binding seen in cells or lysates may run through a third protein. Some entries that bind do so weakly or less than the wild type. Sequences can lack the tags named with a protein.

Amino acid sequences for entries named in this document (tags omitted).
UniProt Q9H1A4: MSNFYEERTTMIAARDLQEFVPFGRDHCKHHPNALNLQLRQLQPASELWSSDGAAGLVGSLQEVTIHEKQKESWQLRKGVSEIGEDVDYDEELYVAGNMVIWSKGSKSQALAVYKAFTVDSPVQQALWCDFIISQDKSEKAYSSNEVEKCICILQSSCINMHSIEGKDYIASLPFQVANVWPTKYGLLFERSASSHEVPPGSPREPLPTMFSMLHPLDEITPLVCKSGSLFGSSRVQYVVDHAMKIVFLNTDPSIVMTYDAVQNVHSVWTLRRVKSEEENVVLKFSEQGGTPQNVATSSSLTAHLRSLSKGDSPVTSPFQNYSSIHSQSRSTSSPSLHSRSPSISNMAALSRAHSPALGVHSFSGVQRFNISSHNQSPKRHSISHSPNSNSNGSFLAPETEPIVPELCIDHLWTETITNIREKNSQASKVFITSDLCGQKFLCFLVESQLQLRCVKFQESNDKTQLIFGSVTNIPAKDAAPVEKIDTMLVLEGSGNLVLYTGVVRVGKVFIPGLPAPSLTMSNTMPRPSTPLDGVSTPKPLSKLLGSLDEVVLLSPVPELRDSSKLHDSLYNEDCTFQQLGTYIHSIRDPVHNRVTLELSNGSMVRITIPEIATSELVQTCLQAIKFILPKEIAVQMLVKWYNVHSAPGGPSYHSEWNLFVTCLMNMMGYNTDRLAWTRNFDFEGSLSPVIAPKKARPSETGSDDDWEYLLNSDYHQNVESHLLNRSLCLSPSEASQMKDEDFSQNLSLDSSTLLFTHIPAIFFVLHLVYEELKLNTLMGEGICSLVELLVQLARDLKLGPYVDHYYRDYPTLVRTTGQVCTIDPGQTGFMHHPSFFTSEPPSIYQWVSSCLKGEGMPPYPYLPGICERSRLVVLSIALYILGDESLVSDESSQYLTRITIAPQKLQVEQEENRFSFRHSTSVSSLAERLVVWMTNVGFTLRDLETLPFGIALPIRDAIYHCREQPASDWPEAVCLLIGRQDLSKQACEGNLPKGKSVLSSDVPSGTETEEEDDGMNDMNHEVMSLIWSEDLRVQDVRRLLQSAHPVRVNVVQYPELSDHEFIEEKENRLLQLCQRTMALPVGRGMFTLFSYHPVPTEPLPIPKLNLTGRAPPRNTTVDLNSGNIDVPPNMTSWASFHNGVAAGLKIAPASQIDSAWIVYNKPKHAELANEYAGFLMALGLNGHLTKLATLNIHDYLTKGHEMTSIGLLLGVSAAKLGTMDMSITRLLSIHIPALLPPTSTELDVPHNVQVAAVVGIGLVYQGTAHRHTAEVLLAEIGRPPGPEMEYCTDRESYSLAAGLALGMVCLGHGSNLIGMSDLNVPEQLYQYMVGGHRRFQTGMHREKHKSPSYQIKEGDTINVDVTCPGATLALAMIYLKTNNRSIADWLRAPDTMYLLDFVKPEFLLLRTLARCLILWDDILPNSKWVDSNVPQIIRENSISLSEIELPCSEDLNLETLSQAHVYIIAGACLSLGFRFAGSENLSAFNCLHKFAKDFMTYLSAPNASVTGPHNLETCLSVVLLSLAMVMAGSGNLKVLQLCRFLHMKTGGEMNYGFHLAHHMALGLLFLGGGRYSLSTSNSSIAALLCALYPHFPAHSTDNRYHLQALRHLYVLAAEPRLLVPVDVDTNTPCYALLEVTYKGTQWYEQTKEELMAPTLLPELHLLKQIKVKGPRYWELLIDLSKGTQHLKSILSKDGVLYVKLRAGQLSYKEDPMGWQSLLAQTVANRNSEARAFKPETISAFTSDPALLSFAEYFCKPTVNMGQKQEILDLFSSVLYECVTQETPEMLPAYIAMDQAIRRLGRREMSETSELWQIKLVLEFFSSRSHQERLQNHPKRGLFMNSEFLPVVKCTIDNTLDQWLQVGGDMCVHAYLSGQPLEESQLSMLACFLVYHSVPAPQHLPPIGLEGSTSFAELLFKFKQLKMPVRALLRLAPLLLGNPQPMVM
UniProt Q9UJX4: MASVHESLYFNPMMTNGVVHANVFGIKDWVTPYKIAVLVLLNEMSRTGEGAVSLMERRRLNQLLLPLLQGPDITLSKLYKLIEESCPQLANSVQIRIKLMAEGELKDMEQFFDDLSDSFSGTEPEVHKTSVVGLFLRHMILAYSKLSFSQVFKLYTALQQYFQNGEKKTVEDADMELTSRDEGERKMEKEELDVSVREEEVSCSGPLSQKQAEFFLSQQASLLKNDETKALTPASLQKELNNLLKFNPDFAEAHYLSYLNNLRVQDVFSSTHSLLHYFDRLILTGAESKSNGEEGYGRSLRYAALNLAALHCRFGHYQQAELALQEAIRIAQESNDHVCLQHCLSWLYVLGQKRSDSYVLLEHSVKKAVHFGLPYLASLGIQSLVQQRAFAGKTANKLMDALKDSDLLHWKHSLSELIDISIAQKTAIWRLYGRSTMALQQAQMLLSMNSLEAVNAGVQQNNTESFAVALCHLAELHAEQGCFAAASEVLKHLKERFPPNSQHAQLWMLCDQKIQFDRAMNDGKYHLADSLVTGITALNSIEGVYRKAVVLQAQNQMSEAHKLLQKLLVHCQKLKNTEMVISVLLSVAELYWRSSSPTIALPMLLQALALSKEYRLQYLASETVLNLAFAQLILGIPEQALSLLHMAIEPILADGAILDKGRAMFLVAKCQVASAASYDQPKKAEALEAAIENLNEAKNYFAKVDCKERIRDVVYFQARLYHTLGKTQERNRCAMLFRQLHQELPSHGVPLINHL

Experiments:
[1] = molecular target: T1, FLAG-tagged RECQ4 Q757X mutant (human) (UniProt O94761); experiment: co-IP; FLAG-RECQ4 proteins on anti-FLAG M2 agarose from chromatin-bound (CB) fractions of stable RECQ4 KD HEK293 cells; western blot (Fig. 2d right, Fig. 7g)
T1 sequence: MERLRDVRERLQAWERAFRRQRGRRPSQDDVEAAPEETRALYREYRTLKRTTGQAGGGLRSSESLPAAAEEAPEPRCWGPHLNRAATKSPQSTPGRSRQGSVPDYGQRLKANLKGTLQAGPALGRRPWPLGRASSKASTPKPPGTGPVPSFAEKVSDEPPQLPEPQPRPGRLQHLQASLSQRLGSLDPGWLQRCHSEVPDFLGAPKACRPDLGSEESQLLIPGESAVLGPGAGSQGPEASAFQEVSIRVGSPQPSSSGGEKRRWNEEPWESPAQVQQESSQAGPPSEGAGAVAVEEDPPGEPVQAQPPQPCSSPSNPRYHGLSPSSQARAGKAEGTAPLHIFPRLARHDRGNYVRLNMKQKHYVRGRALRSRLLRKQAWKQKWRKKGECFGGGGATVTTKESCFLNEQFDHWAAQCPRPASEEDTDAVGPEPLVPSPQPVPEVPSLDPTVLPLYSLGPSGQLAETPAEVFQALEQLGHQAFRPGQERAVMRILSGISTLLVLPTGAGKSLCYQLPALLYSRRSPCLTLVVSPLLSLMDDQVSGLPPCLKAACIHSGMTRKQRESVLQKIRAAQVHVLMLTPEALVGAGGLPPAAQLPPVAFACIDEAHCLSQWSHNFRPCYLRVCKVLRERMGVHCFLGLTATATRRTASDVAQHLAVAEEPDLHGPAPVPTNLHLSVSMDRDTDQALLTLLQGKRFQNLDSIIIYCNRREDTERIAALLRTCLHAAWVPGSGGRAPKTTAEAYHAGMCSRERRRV

[2] = molecular target: T2, FLAG-tagged RECQ4 D1093X mutant (human) (UniProt O94761); experiment: as above
T2 sequence: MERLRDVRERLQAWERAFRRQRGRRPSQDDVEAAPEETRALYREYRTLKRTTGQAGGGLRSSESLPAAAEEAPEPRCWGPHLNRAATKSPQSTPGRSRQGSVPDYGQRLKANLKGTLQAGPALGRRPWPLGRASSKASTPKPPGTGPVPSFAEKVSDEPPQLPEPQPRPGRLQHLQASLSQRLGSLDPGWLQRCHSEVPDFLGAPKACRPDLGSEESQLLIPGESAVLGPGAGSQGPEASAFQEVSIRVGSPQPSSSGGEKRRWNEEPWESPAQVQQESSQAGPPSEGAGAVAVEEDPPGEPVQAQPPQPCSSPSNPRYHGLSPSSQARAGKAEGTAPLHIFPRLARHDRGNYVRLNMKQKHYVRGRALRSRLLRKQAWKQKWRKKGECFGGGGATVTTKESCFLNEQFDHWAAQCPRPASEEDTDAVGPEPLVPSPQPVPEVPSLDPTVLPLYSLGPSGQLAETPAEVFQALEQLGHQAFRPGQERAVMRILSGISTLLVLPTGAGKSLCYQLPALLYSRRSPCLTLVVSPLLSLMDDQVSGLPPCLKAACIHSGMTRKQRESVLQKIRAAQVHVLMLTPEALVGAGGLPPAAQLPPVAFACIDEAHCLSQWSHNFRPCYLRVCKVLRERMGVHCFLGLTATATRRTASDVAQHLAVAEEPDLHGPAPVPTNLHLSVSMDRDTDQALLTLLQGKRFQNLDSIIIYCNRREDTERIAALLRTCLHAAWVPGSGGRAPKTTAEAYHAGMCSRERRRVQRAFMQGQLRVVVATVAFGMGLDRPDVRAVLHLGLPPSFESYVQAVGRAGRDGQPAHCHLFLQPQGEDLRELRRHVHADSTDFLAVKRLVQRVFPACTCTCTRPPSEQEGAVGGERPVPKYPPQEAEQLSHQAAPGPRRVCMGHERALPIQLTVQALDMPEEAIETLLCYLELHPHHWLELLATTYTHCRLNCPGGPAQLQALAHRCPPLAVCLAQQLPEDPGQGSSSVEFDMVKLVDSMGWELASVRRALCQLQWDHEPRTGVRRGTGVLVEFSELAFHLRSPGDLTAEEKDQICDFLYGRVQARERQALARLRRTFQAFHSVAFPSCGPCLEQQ

[3] = molecular target: T1, FLAG-tagged RECQ4 Q757X mutant (human); experiment: co-IP; FLAG-RECQ4 WT, Q757X or Q757X-ID co-immunopurified from whole-cell extracts of stable, asynchronous RECQ4 KD HEK293 cells; western blot, normalised to the bait (Fig. 5a, f)

Measured: binding

APC1 (from UniProt Q9H1A4 1-1944)
binds: all assays above

APC5 (from UniProt Q9UJX4 1-755)
binds: all assays above
